Assay [1] has as its target T1, XRAD21-8xHis (Xenopus laevis) (UniProt O93310).
T1 sequence: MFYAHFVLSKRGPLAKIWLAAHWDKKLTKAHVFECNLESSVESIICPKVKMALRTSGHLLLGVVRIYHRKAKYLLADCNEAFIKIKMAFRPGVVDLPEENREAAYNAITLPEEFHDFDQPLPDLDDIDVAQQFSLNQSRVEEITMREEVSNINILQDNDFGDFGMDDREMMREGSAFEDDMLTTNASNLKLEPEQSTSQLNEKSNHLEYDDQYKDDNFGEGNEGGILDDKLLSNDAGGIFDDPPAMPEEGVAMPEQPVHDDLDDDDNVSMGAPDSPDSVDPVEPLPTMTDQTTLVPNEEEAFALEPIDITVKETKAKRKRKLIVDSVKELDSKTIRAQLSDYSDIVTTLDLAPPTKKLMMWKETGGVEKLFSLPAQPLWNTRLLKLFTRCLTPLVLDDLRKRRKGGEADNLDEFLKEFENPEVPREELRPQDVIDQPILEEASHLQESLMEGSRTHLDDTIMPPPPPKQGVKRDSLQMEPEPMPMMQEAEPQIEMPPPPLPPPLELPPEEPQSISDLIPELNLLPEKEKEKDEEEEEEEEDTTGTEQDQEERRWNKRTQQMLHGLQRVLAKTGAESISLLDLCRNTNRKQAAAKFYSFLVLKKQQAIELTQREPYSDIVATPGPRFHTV
The experiment in a line: co-purification.

Amino acid sequences for entries named in this document (tags omitted).
UniProt O93309, whole entry: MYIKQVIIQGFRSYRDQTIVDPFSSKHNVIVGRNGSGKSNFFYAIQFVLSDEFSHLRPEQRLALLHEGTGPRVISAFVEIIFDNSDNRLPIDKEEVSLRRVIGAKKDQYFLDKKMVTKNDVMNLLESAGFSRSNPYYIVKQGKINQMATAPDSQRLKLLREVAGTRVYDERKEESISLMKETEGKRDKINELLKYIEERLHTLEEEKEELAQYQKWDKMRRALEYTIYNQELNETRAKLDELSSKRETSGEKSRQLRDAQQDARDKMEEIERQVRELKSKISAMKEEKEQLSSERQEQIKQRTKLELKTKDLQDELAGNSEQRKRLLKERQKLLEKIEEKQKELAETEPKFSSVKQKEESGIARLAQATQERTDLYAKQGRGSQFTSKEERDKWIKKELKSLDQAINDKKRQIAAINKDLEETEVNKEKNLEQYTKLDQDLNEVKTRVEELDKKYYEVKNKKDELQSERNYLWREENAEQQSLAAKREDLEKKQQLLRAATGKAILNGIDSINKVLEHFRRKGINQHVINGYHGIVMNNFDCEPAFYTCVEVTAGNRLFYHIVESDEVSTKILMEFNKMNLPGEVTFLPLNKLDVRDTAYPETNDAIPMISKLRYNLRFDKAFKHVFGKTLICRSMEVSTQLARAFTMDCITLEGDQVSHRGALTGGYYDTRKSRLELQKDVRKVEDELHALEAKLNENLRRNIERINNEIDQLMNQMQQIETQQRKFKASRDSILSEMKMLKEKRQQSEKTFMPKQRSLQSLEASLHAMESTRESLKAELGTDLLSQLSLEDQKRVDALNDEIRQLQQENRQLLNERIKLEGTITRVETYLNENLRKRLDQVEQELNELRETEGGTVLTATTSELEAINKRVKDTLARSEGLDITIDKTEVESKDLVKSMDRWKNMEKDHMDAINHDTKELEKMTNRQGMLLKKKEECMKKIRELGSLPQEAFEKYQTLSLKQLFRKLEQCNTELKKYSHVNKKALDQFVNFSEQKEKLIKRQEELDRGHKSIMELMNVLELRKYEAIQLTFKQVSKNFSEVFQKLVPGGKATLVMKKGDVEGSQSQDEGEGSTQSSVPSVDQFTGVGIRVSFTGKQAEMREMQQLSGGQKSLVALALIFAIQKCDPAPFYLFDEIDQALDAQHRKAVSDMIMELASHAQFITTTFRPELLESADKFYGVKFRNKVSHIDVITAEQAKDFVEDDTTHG

For assay [2], the target named is XSMC3-Halo-Flag (Xenopus laevis) (UniProt O93309). The assay can be described thus: co-purification.

No constants are given. Whether binding was seen depends on the method and setting. Some entries that bind do so weakly or less than the wild type. For some assays here: Tags and fused reporters may be left off the sequences shown.

From doi:10.1101/2022.09.15.508094 come the findings set out here.

B1: XSMC1 (protein, UniProt O93308 1-1232)
chain: MGFLKLIEIENFKSYKGRQIIGPFHRFTAIIGPNGSGKSNLMDAISFVLGEKTSNLRVKTLRDLIHGAPVGKPAANRAFVSMVYSEDSGEEKVFSRVIVGGSSEYKINNKVVQLSEYSDSLEKLGILIKARNFLVFQGAVESIAMKNPKERTALFEEISRSGELAQEYDKRKKEMVKAEEDTQFNYHRKKNIAAERKEAKQEKEEAERYQRLKDEVARAQIQLQLFKLYHNESEIEKLNKELSVKNKGIEKDKKHMDKVEEELKDKKKELGKMMREQQAIEKEIKEKDAELNQKLPQYIKAKENPSHKIKKFRAAKKSLQNAQKQYKKRKADMDELEKEMLSVEKARQEFEERMEEESQSQGRDLTLEENQVKKYHRLKEEASKRAATLAQELEKFNRDQKADQDRLDLEERKKVETEAKIKQKLRELEENQKRIEKLEEYIATSKQSLEEQKNLEETLTEEVEMAKRRIDEINSELNQVMEQLGDARIDRQESSRQQRKAEIMESIKRLYPGSVYGRLIDLCQPTQKKYQIAVTKVLGKNMDAIIVDSEKTGRDCIQYIKEQRGEPETFLPLDYLEVKPTDERLRELKGAKLVIDVIRYEPPHIKKALQYACGNALVCDNVEDARRIAFGGHQRHKTVALDGTLFQKSGVISGGASDLKAKARRWDEKAVDKLKEKKERLTEELKEQMKAKRKEAELRQVQSQAHGLQMRLKYSQSDLEQTKTRHLAMNMQEKSKLESELANFSPRINDIKRIIQSRDREMKDLKEKMNQVEDEVFEEFCREIGVRNIREFEEEKVKRQNEIAKKRLEFENQKTRLGIQLDYEKNQLKEDQGKVQTWEQSVKKDDNEIEKLKKEEQRHMKIIDETMAQLQDLKNQHLAKKSEVNDKNHLMEDIRKKLGSANKEVTHLQKEVTAIETKLEQKRSDRHNLLQACKMSDIKLPLSKGTMDDISQEEGSSQGEESASSSQRSSTVYAKEALIEIDYSDLSEDLKDAVADDDIKQEMSALHQKINEQQSILQRISAPNMKAMEKLESVRDKFQETSDEFEAARKRAKKAKQAFEQTKKERFDRFNACFESVATNIDEIYKALSRNSSAQAFLGPENPEEPYLDGINYNCVAPGKRFRPMDNLSGGEKTVAALALLFAIHSYKPSPFFVLDEIDAALDNTNIGKVANYIKEQSMSNFQAIVISLKEEFYTKAESLIGVYPEQGDCVISKVLTFDLTKYPDANPNPND
In the case of B1, the binding result in assay [1] and in assay [2] was “binds” each time.
